Assay results: the supplement of paper PMC4604168 (melanoma cell lines)
The list shows a part of the results. Repeats are few or missing, and single values can be far off.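 Imaging used 1,536-well plates; nuclei positive for cleaved PARP by antibody were divided by total DNA-stained nuclei to yield the apoptosis fraction. Doses for screening kept most cells viable, and cell lines differ markedly in resting and induced cleaved-PARP levels.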

What was measured:
Assay in all cases: cleaved PARP positive nuclei fraction relative to DMSO control; melanoma cells; higher = more apoptosis
Conditions in all cases: library dose: low library concentration; 72 h
501Mel = tested on: 501Mel
A101D = tested on: A101D
A2058 = tested on: A2058
C32 = tested on: C32
CBRC008 = tested on: CBRC008 (line from a melanoma biopsy)
CBRC014 = tested on: CBRC014 (line from a melanoma biopsy)
CBRC016 = tested on: CBRC016 (line from a melanoma biopsy)
CBRC017 = tested on: CBRC017 (line from a melanoma biopsy)
A375 = tested on: A375
CBRC013 = tested on: CBRC013 (line from a melanoma biopsy)

Compound | cleaved PARP positive nuclei fraction (501Mel) [%] | cleaved PARP positive nuclei fraction (A101D) [%] | cleaved PARP positive nuclei fraction (A2058) [%] | cleaved PARP positive nuclei fraction (C32) [%] | cleaved PARP positive nuclei fraction (CBRC008) [%] | cleaved PARP positive nuclei fraction (CBRC014) [%] | cleaved PARP positive nuclei fraction (CBRC016) [%] | cleaved PARP positive nuclei fraction (CBRC017) [%] | cleaved PARP positive nuclei fraction (A375) [%] | cleaved PARP positive nuclei fraction (CBRC013) [%]
N.N.[Cl][Pt][Cl] [cisplatin] + CC(C)CCN1c2nc(Nc3cc(F)c(O)c(F)c3)ncc2N(C)C(=O)C1C [BID1870] (first compound 1.6 µM, partner dose 0.2 µM) | 136 | 28.5 | 190 | 38.5 | 247 | 118 | 215 | 237 |  | 
CN(c1ncccc1CNc1nc(Nc2ccc3c(c2)CC(=O)N3)ncc1C(F)(F)F)S(C)(=O)=O + C/C(O)=C(\C#N)C(=O)Nc1cc(Br)ccc1Br [LFM-A13] (first compound 0.08 µM, partner dose 2 µM) | 58.4 | 26.1 | 116 | 89.8 | 60.8 | 85.1 | 42.2 | 72.2 |  | 
C[C@]12O[C@H](C[C@]1(O)CO)n1c3ccccc3c3c4c(c5c6ccccc6n2c5c31)CNC4=O [Lestaurtinib] + COc1ccc(COc2ccc(Cc3cnc(N)nc3N)cc2OC)cc1 [GW2580] (first compound 0.004 µM, partner dose 1 µM) | 63.7 | 28 | 91.4 | 30.4 | 27.5 | 83.4 | 36.4 | 171 |  | 
Cn1cc(C2=C(c3cn(C4CCN(Cc5ccccn5)CC4)c4ccccc34)C(=O)NC2=O)c2ccccc21 [Enzastaurin] + Cc1cc([N+](=O)[O-])ccc1NS(=O)(=O)c1cc(Cl)ccc1Cl [FH535] (first compound 0.8 µM, partner dose 1 µM) |  | 27.6 | 67.6 | 67.4 | 400 | 142 | 790 | 327 |  | 
CN1CCN(c2ccc3nc(-c4c(N)c5c(F)cccc5[nH]c4=O)[nH]c3c2)CC1 [Dovitinib] + Cc1cc(SCc2sc(-c3ccc(C(F)(F)F)c(F)c3)nc2C)ccc1OCC(=O)O [GW0742] (first compound 0.1 µM, partner dose 2 µM) |  | 32.1 | 77.7 | 85.3 | 38.4 | 114 | 83.1 | 81.7 |  | 
CO[C@H]1C[C@@H]2CC[C@@H](C)[C@@](O)(O2)C(=O)C(=O)N2CCCC[C@H]2C(=O)O[C@H]([C@H](C)C[C@@H]2CC[C@@H](OCCO)[C@H](OC)C2)CC(=O)[C@H](C)/C=C(\C)[C@@H](O)[C@@H](OC)C(=O)[C@H](C)C[C@H](C)/C=C/C=C/C=C/1C [everolimus] + O=C(Oc1ccc([N+](=O)[O-])cc1)N1CCC(C(O)(c2ccc3c(c2)OCO3)c2ccc3c(c2)OCO3)CC1 [JZL184] (first compound 0.02 µM, partner dose 1 µM) |  | 41.3 | 311 | 190 | 125 | 83.6 | 53.1 | 263 |  | 
Cc1nc(Nc2ncc(C(=O)Nc3c(C)cccc3Cl)s2)cc(N2CCN(CCO)CC2)n1 [dasatanib] + O=C(Oc1ccc([N+](=O)[O-])cc1)N1CCC(C(O)(c2ccc3c(c2)OCO3)c2ccc3c(c2)OCO3)CC1 [JZL184] (first compound 0.004 µM, partner dose 1 µM) |  | 66 | 39.6 | 186 |  | 133 | 110 | 90.6 | 42.6 | 32.2
Cn1cc(C2=C(c3cn(C4CCN(Cc5ccccn5)CC4)c4ccccc34)C(=O)NC2=O)c2ccccc21 [Enzastaurin] + CC(=O)O[C@@]12CO[C@@H]1C[C@H](O)[C@@]1(C)C(=O)[C@H](O)C3=C(C)[C@@H](OC(=O)[C@H](O)[C@@H](NC(=O)OC(C)(C)C)c4ccccc4)C[C@@](O)([C@@H](OC(=O)c4ccccc4)[C@H]21)C3(C)C [Docetaxel] (first compound 0.8 µM, partner dose 0.0001 µM) |  | 292 | 1410 | 71.9 | 544 | 139 | 379 | 198 | 7060 | 
COc1ccc(COc2ccc(Cc3cnc(N)nc3N)cc2OC)cc1 + O=C(Oc1ccc([N+](=O)[O-])cc1)N1CCC(C(O)(c2ccc3c(c2)OCO3)c2ccc3c(c2)OCO3)CC1 [JZL184] (first compound 1 µM, partner dose 1 µM) |  | 145 | 81.1 | 129 |  | 90.1 | 74.6 | 75.8 | 328 | 832
N.N.[Cl][Pt][Cl] [cisplatin] + CCN(CC)CCCCNc1ncc2cc(-c3cc(OC)cc(OC)c3)c(NC(=O)NC(C)(C)C)nc2n1 [PD173074] (first compound 1.6 µM, partner dose 0.1 µM) |  | 7.21 | 76 | 84.2 | 325 | 124 | 62.1 | 93.6 |  | 
Cc1cc(Nc2cc(N3CCN(C)CC3)nc(Sc3ccc(NC(=O)C4CC4)cc3)n2)n[nH]1 [Tozasertib] + Cc1cc(SCc2sc(-c3ccc(C(F)(F)F)c(F)c3)nc2C)ccc1OCC(=O)O [GW0742] (first compound 0.006 µM, partner dose 2 µM) |  | 25.2 | 107 | 88.3 | 44.6 | 86.8 | 62.6 | 91.7 |  | 
C[C@]12O[C@H](C[C@]1(O)CO)n1c3ccccc3c3c4c(c5c6ccccc6n2c5c31)CNC4=O [Lestaurtinib] + Cc1nc(Nc2ncc(C(=O)Nc3c(C)cccc3Cl)s2)cc(N2CCN(CCO)CC2)n1 [dasatanib] (first compound 0.004 µM, partner dose 0.004 µM) |  | 99 | 21.8 | 71 | 128 | 86.1 | 93.4 | 209 | 99.9 | 
C[As](C)SC[C@H](NC(=O)CC[C@H](N)C(=O)O)C(=O)NCC(=O)O [Darinaparsin] + COc1ccc(-c2ccc3c(N4CCOCC4)nc(N4C[C@@H](C)O[C@@H](C)C4)nc3n2)cc1CO [KU0063794] (first compound 0.4 µM, partner dose 0.02 µM) |  | 157 | 85.1 | 128 |  | 86.1 | 183 | 76.4 | 63 | 109
Clc1ccc(Nc2nnc(Cc3ccncc3)c3ccccc23)cc1 [vatalanib] + Cc1cc(SCc2sc(-c3ccc(C(F)(F)F)c(F)c3)nc2C)ccc1OCC(=O)O [GW0742] (first compound 2 µM, partner dose 2 µM) |  | 109 | 90.9 | 169 | 39.8 | 99.2 | 275 | 108 |  | 
C[C@]12O[C@H](C[C@]1(O)CO)n1c3ccccc3c3c4c(c5c6ccccc6n2c5c31)CNC4=O [Lestaurtinib] + C[C@@H](Oc1cc(-c2cnn(C3CCNCC3)c2)cnc1N)c1c(Cl)ccc(F)c1Cl [Crizotinib] (first compound 0.004 µM, partner dose 0.2 µM) |  | 141 | 254 | 153 | 105 | 100 | 66.9 | 104 | 58.6 | 
Cn1cc(C2=C(c3cn(C4CCN(Cc5ccccn5)CC4)c4ccccc34)C(=O)NC2=O)c2ccccc21 [Enzastaurin] + C[C@@H](Oc1cc(-c2cnn(C3CCNCC3)c2)cnc1N)c1c(Cl)ccc(F)c1Cl [Crizotinib] (first compound 0.8 µM, partner dose 0.2 µM) |  | 274 | 98.9 | 72.1 | 147 | 90.8 | 125 | 125 | 110 | 
Cc1cc(SCc2sc(-c3ccc(C(F)(F)F)c(F)c3)nc2C)ccc1OCC(=O)O + COc1cc2ncnc(Nc3ccc(Oc4ccccc4)cc3)c2cc1OC [SrcI1] (first compound 2 µM, partner dose 2 µM) |  | 101 | 119 | 115 |  | 96.2 | 128 | 86.5 | 127 | 46.8
O=C(O)c1ccc2c(c1)nc(Nc1cccc(Cl)c1)c1ccncc12 + C/C(O)=C(\C#N)C(=O)Nc1cc(Br)ccc1Br [LFM-A13] (first compound 0.4 µM, partner dose 2 µM) |  | 37.4 | 158 | 123 | 230 | 112 | 107 | 132 |  | 
N.N.[Cl][Pt][Cl] [cisplatin] + O=C(Oc1ccc([N+](=O)[O-])cc1)N1CCC(C(O)(c2ccc3c(c2)OCO3)c2ccc3c(c2)OCO3)CC1 [JZL184] (first compound 1.6 µM, partner dose 1 µM) |  | 64.9 | 52.8 | 69.6 | 311 | 85 | 112 | 250 |  | 
Cn1cc(C2=C(c3cn(C4CCN(Cc5ccccn5)CC4)c4ccccc34)C(=O)NC2=O)c2ccccc21 [Enzastaurin] + N.N.[Cl][Pt][Cl] [cisplatin] (first compound 0.8 µM, partner dose 1.6 µM) |  | 92.3 | 60.4 | 137 | 64.5 | 81.9 | 89.6 | 110 | 57 | 
C[C@]12O[C@H](C[C@]1(O)CO)n1c3ccccc3c3c4c(c5c6ccccc6n2c5c31)CNC4=O [Lestaurtinib] + Cn1nnc2c(C(N)=O)ncn2c1=O [temozolomide] (first compound 0.004 µM, partner dose 2 µM) |  | 161 | 111 | 68.1 | 120 | 197 | 80.5 | 70.3 | 67.6 | 

As entered above:
Value for Cc1cc(SCc2sc(-c3ccc(C(F)(F)F)c(F)c3)nc2C)ccc1OCC(=O)O + COc1cc2ncnc(Nc3ccc(Oc4ccccc4)cc3)c2cc1OC [SrcI1] (first compound 2 µM, partner dose 2 µM) under cleaved PARP positive nuclei fraction (CBRC014) [%]: 96.2
Value for C[C@]12O[C@H](C[C@]1(O)CO)n1c3ccccc3c3c4c(c5c6ccccc6n2c5c31)CNC4=O [Lestaurtinib] + Cc1nc(Nc2ncc(C(=O)Nc3c(C)cccc3Cl)s2)cc(N2CCN(CCO)CC2)n1 [dasatanib] (first compound 0.004 µM, partner dose 0.004 µM) under cleaved PARP positive nuclei fraction (CBRC008) [%]: 128
